Experimental data as given in the supplement of paper PMC10849652.
The list shows a part of the results.

Chains of the proteins cited; added tags and fusions are not shown. Lines headed by an entry give the natural chain unless they say otherwise; changes in a name come on top.
UniProt Q96GF1: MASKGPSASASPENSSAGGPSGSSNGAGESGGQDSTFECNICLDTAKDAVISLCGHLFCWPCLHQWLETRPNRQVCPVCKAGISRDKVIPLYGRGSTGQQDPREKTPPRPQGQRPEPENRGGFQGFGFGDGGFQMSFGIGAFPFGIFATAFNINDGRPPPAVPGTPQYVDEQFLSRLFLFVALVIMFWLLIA
UniProt Q2KHR2: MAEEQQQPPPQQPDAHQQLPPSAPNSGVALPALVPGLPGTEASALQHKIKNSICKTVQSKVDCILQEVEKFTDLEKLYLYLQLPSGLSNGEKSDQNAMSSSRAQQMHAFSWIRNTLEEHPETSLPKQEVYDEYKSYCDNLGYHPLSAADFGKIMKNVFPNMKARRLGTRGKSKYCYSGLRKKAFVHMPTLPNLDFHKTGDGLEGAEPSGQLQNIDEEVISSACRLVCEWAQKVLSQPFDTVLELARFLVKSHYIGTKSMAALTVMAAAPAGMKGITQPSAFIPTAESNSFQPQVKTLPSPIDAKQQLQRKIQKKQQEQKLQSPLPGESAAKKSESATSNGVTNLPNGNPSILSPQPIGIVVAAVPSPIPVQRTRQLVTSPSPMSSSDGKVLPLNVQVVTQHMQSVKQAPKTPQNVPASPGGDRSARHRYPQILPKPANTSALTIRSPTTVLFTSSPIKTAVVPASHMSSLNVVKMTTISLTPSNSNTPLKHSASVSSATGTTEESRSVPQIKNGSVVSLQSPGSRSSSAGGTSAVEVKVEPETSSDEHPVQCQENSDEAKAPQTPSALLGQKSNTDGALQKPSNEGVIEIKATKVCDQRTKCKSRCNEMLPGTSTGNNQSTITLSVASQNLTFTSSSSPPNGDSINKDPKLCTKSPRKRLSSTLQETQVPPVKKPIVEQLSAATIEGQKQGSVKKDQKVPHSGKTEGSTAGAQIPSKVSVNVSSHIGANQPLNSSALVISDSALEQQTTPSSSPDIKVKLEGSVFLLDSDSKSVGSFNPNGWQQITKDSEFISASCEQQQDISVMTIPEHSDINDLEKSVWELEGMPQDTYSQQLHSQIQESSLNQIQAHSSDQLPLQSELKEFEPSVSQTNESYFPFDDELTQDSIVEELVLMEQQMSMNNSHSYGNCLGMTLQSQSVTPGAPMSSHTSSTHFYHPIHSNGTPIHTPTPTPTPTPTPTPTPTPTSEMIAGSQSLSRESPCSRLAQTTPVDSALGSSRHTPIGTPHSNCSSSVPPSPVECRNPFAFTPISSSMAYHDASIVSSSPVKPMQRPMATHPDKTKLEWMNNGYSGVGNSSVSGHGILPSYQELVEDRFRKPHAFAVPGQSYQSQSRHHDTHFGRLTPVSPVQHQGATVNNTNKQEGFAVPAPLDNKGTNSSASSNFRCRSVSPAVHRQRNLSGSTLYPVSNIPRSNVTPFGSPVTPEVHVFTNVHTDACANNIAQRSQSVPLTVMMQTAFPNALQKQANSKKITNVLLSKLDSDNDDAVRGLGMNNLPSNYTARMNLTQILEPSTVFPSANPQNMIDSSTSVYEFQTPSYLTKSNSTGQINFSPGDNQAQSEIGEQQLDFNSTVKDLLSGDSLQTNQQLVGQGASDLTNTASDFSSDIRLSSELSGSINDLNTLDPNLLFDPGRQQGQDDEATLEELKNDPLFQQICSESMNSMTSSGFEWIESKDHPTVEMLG
UniProt Q96K19: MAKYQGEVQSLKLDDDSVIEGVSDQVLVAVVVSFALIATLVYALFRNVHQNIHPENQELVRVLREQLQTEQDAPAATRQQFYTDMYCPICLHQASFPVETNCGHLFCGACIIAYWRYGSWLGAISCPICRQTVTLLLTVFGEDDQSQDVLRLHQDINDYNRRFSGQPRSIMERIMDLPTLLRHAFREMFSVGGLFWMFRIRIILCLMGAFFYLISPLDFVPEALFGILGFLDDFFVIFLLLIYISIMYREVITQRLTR
UniProt Q9H4X1: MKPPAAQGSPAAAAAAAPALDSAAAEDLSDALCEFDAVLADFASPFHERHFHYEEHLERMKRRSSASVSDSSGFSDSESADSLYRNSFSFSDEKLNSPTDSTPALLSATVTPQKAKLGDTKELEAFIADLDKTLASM
UniProt Q9Y3C5: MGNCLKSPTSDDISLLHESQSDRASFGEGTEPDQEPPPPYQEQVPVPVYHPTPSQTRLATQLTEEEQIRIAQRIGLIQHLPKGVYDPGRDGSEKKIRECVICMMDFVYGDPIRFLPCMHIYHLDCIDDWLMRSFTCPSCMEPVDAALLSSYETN
UniProt Q8IYW5, whole entry, looked up: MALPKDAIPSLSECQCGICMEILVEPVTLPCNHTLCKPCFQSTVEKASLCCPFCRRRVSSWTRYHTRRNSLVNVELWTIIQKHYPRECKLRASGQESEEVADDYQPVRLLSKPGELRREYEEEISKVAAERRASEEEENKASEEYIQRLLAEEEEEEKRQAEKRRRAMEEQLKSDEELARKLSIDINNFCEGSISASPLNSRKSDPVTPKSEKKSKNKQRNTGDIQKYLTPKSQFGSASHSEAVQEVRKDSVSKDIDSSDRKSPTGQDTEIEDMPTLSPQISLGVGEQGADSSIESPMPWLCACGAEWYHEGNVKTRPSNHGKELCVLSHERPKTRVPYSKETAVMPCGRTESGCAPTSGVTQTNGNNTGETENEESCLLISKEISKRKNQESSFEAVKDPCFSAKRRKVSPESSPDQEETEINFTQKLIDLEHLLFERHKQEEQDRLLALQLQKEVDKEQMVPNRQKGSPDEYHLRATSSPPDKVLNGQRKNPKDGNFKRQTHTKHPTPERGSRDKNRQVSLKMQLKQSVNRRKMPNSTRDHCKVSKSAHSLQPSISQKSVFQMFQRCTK
UniProt A6NEQ0: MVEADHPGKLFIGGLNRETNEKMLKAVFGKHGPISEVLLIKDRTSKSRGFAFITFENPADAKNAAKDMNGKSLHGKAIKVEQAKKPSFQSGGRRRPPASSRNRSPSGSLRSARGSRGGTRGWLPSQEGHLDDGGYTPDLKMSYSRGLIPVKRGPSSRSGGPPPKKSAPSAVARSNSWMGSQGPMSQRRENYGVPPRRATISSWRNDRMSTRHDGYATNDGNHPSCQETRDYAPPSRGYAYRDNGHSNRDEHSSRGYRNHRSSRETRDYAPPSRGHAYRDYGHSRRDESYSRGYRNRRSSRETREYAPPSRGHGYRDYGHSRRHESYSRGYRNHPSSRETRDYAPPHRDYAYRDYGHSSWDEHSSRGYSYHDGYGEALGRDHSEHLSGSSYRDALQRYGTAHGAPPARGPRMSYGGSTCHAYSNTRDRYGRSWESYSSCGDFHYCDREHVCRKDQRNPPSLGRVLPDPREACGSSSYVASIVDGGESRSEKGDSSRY
UniProt Q9Y225: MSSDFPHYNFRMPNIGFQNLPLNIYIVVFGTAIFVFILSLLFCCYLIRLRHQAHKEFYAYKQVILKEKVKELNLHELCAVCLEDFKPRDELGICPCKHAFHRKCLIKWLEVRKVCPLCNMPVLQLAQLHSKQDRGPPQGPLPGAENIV
UniProt Q15493: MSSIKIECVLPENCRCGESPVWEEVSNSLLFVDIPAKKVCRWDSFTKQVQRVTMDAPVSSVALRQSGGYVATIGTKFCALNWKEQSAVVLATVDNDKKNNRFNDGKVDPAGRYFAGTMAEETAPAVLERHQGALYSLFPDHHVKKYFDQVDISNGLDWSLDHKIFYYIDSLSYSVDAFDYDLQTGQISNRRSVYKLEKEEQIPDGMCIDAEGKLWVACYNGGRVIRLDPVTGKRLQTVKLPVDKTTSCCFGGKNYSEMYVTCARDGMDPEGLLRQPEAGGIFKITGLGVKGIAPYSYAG
UniProt Q96LZ7: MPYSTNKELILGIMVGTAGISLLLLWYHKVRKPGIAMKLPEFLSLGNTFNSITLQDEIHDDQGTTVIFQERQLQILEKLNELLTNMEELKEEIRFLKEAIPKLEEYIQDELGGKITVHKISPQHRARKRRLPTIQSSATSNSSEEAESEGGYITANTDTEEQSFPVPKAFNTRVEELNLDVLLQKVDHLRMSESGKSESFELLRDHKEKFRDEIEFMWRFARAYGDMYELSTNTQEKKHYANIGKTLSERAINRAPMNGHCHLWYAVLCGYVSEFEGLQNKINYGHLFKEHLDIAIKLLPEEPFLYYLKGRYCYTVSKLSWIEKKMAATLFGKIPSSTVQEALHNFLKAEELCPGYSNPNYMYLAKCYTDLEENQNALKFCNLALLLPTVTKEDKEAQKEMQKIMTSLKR
UniProt P35251: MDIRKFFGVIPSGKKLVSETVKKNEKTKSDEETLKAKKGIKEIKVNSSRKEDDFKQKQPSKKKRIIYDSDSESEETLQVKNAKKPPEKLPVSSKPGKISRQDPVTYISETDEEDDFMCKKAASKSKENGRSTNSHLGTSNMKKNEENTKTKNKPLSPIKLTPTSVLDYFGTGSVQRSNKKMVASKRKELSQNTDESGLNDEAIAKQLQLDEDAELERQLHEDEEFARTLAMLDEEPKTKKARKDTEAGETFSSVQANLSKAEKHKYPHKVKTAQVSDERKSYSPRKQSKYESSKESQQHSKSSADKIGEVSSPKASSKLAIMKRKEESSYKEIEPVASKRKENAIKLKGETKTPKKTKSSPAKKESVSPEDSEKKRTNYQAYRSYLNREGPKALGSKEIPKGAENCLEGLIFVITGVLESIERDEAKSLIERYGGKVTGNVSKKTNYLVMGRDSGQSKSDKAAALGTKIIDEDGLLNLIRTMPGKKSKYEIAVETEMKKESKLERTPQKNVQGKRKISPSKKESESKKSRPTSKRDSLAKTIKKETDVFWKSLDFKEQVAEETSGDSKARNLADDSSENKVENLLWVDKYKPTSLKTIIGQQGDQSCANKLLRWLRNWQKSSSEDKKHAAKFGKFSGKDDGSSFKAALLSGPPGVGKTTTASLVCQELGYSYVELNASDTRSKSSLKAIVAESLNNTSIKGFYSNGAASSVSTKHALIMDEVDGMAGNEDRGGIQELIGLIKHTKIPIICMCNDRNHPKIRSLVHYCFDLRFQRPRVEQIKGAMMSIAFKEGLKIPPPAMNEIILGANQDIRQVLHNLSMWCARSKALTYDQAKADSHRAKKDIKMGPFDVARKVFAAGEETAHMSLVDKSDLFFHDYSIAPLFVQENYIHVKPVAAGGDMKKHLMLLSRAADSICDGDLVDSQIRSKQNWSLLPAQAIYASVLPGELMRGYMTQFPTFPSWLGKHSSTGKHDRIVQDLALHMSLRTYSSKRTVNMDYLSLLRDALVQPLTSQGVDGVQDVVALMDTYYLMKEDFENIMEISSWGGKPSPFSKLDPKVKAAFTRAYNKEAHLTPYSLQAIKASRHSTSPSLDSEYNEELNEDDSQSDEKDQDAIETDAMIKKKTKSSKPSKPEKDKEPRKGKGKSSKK
UniProt Q96E14: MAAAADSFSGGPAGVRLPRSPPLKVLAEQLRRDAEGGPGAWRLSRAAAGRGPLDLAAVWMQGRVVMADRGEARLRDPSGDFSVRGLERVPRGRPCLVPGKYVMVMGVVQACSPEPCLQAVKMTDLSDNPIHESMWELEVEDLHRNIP
UniProt Q9H6W3: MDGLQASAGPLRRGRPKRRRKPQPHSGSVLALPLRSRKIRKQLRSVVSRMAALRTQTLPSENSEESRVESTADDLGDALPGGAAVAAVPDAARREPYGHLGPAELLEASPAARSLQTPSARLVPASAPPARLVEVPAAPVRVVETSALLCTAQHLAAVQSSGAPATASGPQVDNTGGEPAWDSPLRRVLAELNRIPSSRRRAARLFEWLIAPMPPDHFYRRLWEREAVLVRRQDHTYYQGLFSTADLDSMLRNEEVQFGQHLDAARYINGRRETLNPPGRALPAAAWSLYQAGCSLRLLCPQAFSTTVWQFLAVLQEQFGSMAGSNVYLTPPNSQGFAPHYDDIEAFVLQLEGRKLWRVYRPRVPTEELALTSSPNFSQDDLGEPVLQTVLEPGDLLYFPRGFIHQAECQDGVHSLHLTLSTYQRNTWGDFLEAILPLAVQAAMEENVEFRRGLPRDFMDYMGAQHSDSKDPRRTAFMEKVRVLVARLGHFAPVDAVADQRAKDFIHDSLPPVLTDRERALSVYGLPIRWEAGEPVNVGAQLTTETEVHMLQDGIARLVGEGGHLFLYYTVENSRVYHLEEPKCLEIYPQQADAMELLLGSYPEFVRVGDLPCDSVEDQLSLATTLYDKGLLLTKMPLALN
UniProt Q969X0: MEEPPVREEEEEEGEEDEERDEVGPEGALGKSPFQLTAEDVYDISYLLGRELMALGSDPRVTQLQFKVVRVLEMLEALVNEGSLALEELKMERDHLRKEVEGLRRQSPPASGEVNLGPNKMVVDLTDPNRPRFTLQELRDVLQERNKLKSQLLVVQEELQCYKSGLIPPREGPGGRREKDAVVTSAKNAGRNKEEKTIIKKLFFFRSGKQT
UniProt P09455: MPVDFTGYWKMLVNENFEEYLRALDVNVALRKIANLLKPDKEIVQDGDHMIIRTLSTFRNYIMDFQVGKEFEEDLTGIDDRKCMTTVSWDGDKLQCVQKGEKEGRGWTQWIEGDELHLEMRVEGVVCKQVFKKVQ

Legend:
Assay in all cases: log2 fold change, soluble protein after heating vs DMSO (PISA); higher = thermal stabilisation; K562 cells, 10 uM, 30 min; active = over 0.2 and 3.5 SD of the protein, either way, in both replicates (recomputed)
[1] = compound: CS(=O)(=O)c1ccc(-c2cnc(N)c(C(=O)Nc3ccccc3)n2)cc1
How it was run: (§1)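 K562 cells (2×10^6 cells/mL) were treated with 10 μM compound for 30 min, and aliquots were heated for 3 min over 48°C-58°C. Pooled aliquots were extracted in PBS with 0.5% NP-40 at 4°C, and the supernatant after 21,000xg for 90 min was measured by TMTpro 16plex LC-MS/MS with channel sums equalised. Reported thermal stability, relative to control samples and from duplicates, is a log2 fold change.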

[2] = compound: C[C@H](C1=CC=C(C=C1)C(=O)NC2=C3C=CNC3=NC=C2)N
How it was run: as §1

duvelisib = compound: C[C@H](Nc1ncnc2nc[nH]c12)c1cc2cccc(Cl)c2c(=O)n1-c1ccccc1 [duvelisib]
How it was run: as §1

gandotinib = compound: Cc1cc(Nc2cc(CN3CCOCC3)c3nc(C)c(Cc4ccc(Cl)cc4F)n3n2)n[nH]1 [gandotinib]
How it was run: as §1

tozasertib = compound: Cc1cc(Nc2cc(N3CCN(C)CC3)nc(Sc3ccc(NC(=O)C4CC4)cc3)n2)n[nH]1 [tozasertib]
How it was run: as §1

[3] = compound: Cc1cc(SCc2sc(-c3ccc(C(F)(F)F)cc3)nc2C)ccc1OCC(=O)O
How it was run: as §1

ispinesib = compound: Cc1ccc(C(=O)N(CCCN)[C@@H](c2nc3cc(Cl)ccc3c(=O)n2Cc2ccccc2)C(C)C)cc1 [ispinesib]
How it was run: as §1

[4] = compound: Cc1cccc(CC(=O)N2CCc3c2ccc(-c2cn(C)c4ncnc(N)c24)c3F)n1
How it was run: as §1

dasatinib = compound: Cc1nc(Nc2ncc(C(=O)Nc3c(C)cccc3Cl)s2)cc(N2CCN(CCO)CC2)n1 [dasatinib]
How it was run: as §1

[5] = compound: Cn1cc(-c2ccc3c(c2)CCN3C(=O)Cc2cccc(C(F)(F)F)c2)c2c(N)ncnc21
How it was run: as §1

[6] = compound: Cn1cc(-c2ccc3nnc(C(F)(F)c4ccc5ncccc5c4)n3n2)cn1
How it was run: as §1

tipifarnib = compound: Cn1cncc1[C@@](N)(c1ccc(Cl)cc1)c1ccc2c(c1)c(-c1cccc(Cl)c1)cc(=O)n2C [tipifarnib]
How it was run: as §1

crizotinib = compound: C[C@@H](Oc1cc(-c2cnn(C3CCNCC3)c2)cnc1N)c1c(Cl)ccc(F)c1Cl [crizotinib]
How it was run: as §1

doramapimod = compound: Cc1ccc(-n2nc(C(C)(C)C)cc2NC(=O)Nc2ccc(OCCN3CCOCC3)c3ccccc23)cc1 [doramapimod]
How it was run: as §1

bafetinib = compound: Cc1ccc(NC(=O)c2ccc(CN3CC[C@H](N(C)C)C3)c(C(F)(F)F)c2)cc1Nc1nccc(-c2cncnc2)n1 [bafetinib]
How it was run: as §1

mubritinib = compound: FC(F)(F)c1ccc(/C=C/c2nc(COc3ccc(CCCCn4ccnn4)cc3)co2)cc1 [mubritinib]
How it was run: as §1

nilotinib = compound: Cc1cn(-c2cc(NC(=O)c3ccc(C)c(Nc4nccc(-c5cccnc5)n4)c3)cc(C(F)(F)F)c2)cn1 [nilotinib]
How it was run: as §1

[7] = compound: Cc1nc(Nc2n[nH]c3c2CN(C(=O)N[C@H](CN(C)C)c2ccccc2)C3(C)C)c2sccc2n1
How it was run: as §1

[8] = compound: Cc1ncc(-c2ccnc(Nc3ccc(S(C)(=O)=O)cc3)n2)n1C(C)C
How it was run: as §1

[9] = compound: C[C@@H]1COCCN1C2=NC(=NC(=C2)C3(CC3)S(=O)(=O)C)C4=C5C=CNC5=CC=C4
How it was run: as §1

Measured: log2 fold change

RLIM (UniProt Q9NVW2)
inactive: [1] -0.058 | [2] -0.147 | duvelisib 0.149 | gandotinib 0.304 | tozasertib -0.233 | [3] -0.085 | ispinesib -0.131 | [4] -0.065 | dasatinib -0.03 | [5] 0.259 | [6] -0.068 | tipifarnib -0.011

RNF130 (UniProt Q86XS8)
inactive: crizotinib 0.239 | [2] -0.042 | doramapimod -0.326 | bafetinib -0.034 | [5] 0.146 | tipifarnib 0.1 | mubritinib 0.156

RNF185 (UniProt Q96GF1)
inactive: [2] -0.036 | gandotinib 0.104 | ispinesib -0.024 | bafetinib 0.189 | [4] -0.037 | nilotinib -0.027 | [7] -0.001 | [8] -0.022 | [5] 0.089 | [6] 0.218 | tipifarnib 0.045 | mubritinib 0.057

RHOXF2B (UniProt P0C7M4)
inactive: [1] 0.203 | tipifarnib 0.073

RFX7 (UniProt Q2KHR2)
inactive: [1] 0.012 | duvelisib 0.017 | [3] -0.072 | dasatinib 0.054

RNF170 (UniProt Q96K19)
inactive: crizotinib -0.083 | [9] -0.063 | [2] -0.04 | duvelisib 0.165 | gandotinib -0.108 | [3] -0.109 | doramapimod 0.141 | ispinesib -0.175 | bafetinib 0.069 | [4] 0.004 | nilotinib 0.083 | [7] 0.091 | dasatinib 0.248 | [8] -0.11 | [5] 0.081 | [6] 0.029 | tipifarnib 0.572 | mubritinib -0.282

RINT1 (UniProt Q6NUQ1)
inactive: crizotinib -0.056 | [9] -0.389 | [2] 0.412 | duvelisib 0 | gandotinib -0.061 | tozasertib 0.059 | [3] 0.085 | doramapimod 0.146 | ispinesib -0.051 | bafetinib 0.169 | [4] 0.014 | nilotinib 0.001 | [7] -0.042 | dasatinib 0.028 | [8] -0.01 | [5] -0.051 | [6] -0.057 | tipifarnib -0.075 | mubritinib 0.039

RFWD3 (UniProt Q6PCD5)
inactive: [1] -0.161 | [9] -0.027 | [2] 0.03 | [5] 0.17 | tipifarnib 0.371

RNF166 (UniProt Q96A37)
inactive: [1] -0.006 | [2] -0.07 | duvelisib -0.104 | gandotinib -0.029 | tozasertib -0.082 | [3] -0.018 | ispinesib 0.012 | [4] 0.007 | dasatinib 0.044 | [5] 0.003 | [6] -0.031 | tipifarnib -0.064 | mubritinib 0.077

RGCC (UniProt Q9H4X1)
inactive: gandotinib 0.089 | bafetinib 0.102 | [4] -0.266 | nilotinib 0.391 | [7] -0.076 | [8] 0

RNF11 (UniProt Q9Y3C5)
inactive: crizotinib 0.22 | doramapimod -0.087 | ispinesib -0.076 | [6] 0.019

RNF168 (UniProt Q8IYW5)
inactive: [1] -0.177 | duvelisib -0.343 | tozasertib 0.013 | [3] 0.04 | ispinesib -0.299 | bafetinib -0.022 | nilotinib -0.035 | [7] 0.082 | dasatinib -0.042 | [8] 0.022 | [6] 0.005 | tipifarnib 0.02 | mubritinib 0.027

RECQL5 (UniProt O94762)
inactive: [2] 0.259 | duvelisib 0.062 | gandotinib -0.007 | [3] -0.045 | [4] -0.047 | dasatinib -0.305 | [5] -0.078

RBMY1E (UniProt A6NEQ0)
inactive: crizotinib -0.122 | [2] -0.12 | gandotinib -0.137 | doramapimod -0.007 | ispinesib -0.148 | bafetinib -0.041 | [4] 0.219 | nilotinib 0.009 | [7] -0.038 | [8] 0.026 | [5] 0.29 | [6] -0.164 | tipifarnib -0.016 | mubritinib 0.192

RNF24 isoform 2 (UniProt Q9Y225)
inactive: crizotinib -0.06 | [9] -0.091 | duvelisib 0.016 | gandotinib -0.055 | [3] 0.136 | doramapimod 0.068 | ispinesib 0.145 | bafetinib -0.114 | [4] -0.102 | nilotinib 0.134 | [7] 0.022 | dasatinib 0.269 | [8] 0.179 | [6] -0.044 | tipifarnib 0.318

RBP4 (UniProt P02753)
inactive: crizotinib 0.175 | [2] -0.242 | duvelisib -0.011 | gandotinib -0.29 | tozasertib -0.102 | [3] -0.738 | doramapimod 0.153 | ispinesib -0.027 | bafetinib 0.213 | [4] 0.026 | dasatinib 0.33 | [5] 0.24 | [6] -0.115 | mubritinib -0.069

RGN (UniProt Q15493)
inactive: [1] -0.098 | tozasertib -0.163 | nilotinib 0.036 | [7] 0.136 | [8] -0.04 | tipifarnib -0.032

RMDN2 isoform 2 (UniProt Q96LZ7)
inactive: crizotinib 0 | doramapimod 0.145 | ispinesib -0.112 | nilotinib -0.556 | [7] 0.661 | [8] -0.115 | [6] -0.104 | mubritinib -0.231

RFC1 (UniProt P35251)
inactive: [1] 0.119 | [2] 0.214 | duvelisib 0.031 | gandotinib -0.122 | tozasertib -0.152 | [3] 0.212 | ispinesib -0.325 | [4] 0.119 | dasatinib -0.061 | [5] 0.027 | [6] -0.033

RFXANK (UniProt O14593)
inactive: [9] -0.089 | gandotinib -0.018 | [4] 0.068

RHD (UniProt Q02161)
inactive: crizotinib 0.032 | [2] 0.052 | tozasertib 0.012 | doramapimod 0 | nilotinib 0.116 | [7] -0.128 | [8] 0.122 | [5] -0.058 | tipifarnib -0.104

RICTOR isoform 3 (UniProt Q6R327)
inactive: [1] -0.017 | [9] -0.146 | gandotinib -0.015 | [3] -0.072 | [4] 0.141 | nilotinib -0.102 | [7] 0.176 | dasatinib -0.044 | [8] -0.023 | tipifarnib -0.052

RMI2 (UniProt Q96E14)
inactive: [2] 0.095 | duvelisib 0.081 | tozasertib 0.069 | [3] 0.098 | ispinesib -0.464 | dasatinib -0.111 | [5] 0.025 | [6] -0.151 | tipifarnib -0.299 | mubritinib 0.144

RIOX1 (UniProt Q9H6W3)
inactive: gandotinib 0.168 | [4] -0.274

RNF115 (UniProt Q9Y4L5)
inactive: nilotinib -0.015 | [7] -0.07 | [8] -0.007

RILPL2 (UniProt Q969X0)
inactive: [9] 0.065

RFX3 (UniProt P48380)
inactive: [1] 0.111 | bafetinib -0.135 | tipifarnib -0.097

Retrieved one by one from the list above, 2 records:
RNF185 (UniProt Q96GF1)
inactive: [2] -0.036 | gandotinib 0.104 | ispinesib -0.024 | bafetinib 0.189 | [4] -0.037 | nilotinib -0.027 | [7] -0.001 | [8] -0.022 | [5] 0.089 | [6] 0.218 | tipifarnib 0.045 | mubritinib 0.057

RNF170 (UniProt Q96K19)
inactive: crizotinib -0.083 | [9] -0.063 | [2] -0.04 | duvelisib 0.165 | gandotinib -0.108 | [3] -0.109 | doramapimod 0.141 | ispinesib -0.175 | bafetinib 0.069 | [4] 0.004 | nilotinib 0.083 | [7] 0.091 | dasatinib 0.248 | [8] -0.11 | [5] 0.081 | [6] 0.029 | tipifarnib 0.572 | mubritinib -0.282

Next entries:

RCL1 (UniProt Q5VZU2)
inactive: [9] -0.062 | duvelisib -0.259 | tozasertib 0.085 | [3] 0.044 | ispinesib 0.013 | dasatinib 0.149 | [6] 0.132

RC3H2 (UniProt Q9HBD1)
inactive: [9] -0.14 | gandotinib 0.025 | tozasertib 0.021 | [4] -0.072 | tipifarnib 0.107

RBP1 isoform 3 (UniProt P09455)
inactive: duvelisib -0.383 | gandotinib 0.61 | [3] -0.293 | [4] -0.309 | dasatinib 0.178

RHBDD2 isoform 2 (UniProt Q6NTF9)
inactive: crizotinib -0.059 | [9] 0.135 | [2] -0.002 | duvelisib 0.086 | gandotinib 0.334 | [3] -0.083 | doramapimod 0.037 | bafetinib -0.026 | [4] -0.02 | nilotinib -0.259 | [7] 0.031 | dasatinib 0.029 | [8] -0.148 | [5] 0.016 | mubritinib 0.132
